Laboratory results from CN114652851A.
No constants are given. Whether binding was seen depends on the method and setting. Some results given as binding are weak or reduced against the parent protein; the word gives no strength.

Target: Cynomolgus TROP2蛋白 (cynomolgus monkey)
Experiment: ELISA, TROP2 protein incubated with antibody dilutions, goat anti-human IgG (H+L) secondary antibody

B1: SY02人源化抗体 (人源化抗TROP2抗体SY02) (antibody, human IgG1, kappa, V domains shown)
VH: QVQLVQSGAEVKKPGSSVKVSCKASGYTFTDYSINWVRQAPGQGLEWMGVISTYYGDASYNQKFKGRVTITADESTSTAYMELSSLRSEDTAVYYCARYGDGYNQFDYWGQGTLVTVSS
VL: DIQMTQSPSSLSASVGDRVTITCRVSESVDSYGNNFMHWYQQKPGKAPKLLIYRASNLESGVPSRFSGSGSGTDFTFTISSLQPEDIATYYCQQSYEDPYTFGGGTKLEIKR
  binding: binds
